For assay [1], the target named is enolase-Flag (UniProt P06733). In words: co-IP; HEK293T cells co-transfected with LOXL2-HA or L2Δ13-HA and Flag-tagged glycolytic enzyme; whole cell lysates immunoprecipitated with anti-Flag, western blotting.
The target in assay [2] is T1, aldolase A-Flag (human) (UniProt P04075).
T1 sequence: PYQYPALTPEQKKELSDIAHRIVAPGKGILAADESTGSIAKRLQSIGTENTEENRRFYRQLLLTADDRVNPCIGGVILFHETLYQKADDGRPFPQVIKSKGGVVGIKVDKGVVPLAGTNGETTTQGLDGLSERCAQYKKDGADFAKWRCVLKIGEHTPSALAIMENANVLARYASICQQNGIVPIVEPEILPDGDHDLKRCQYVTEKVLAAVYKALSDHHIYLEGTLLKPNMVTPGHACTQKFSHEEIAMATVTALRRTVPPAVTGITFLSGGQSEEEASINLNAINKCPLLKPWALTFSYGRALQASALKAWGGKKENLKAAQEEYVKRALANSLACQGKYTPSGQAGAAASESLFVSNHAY
Described as above.

The chains behind the UniProt entries cited, without tags or fusion partners. Residues count along the entry.
UniProt P06733: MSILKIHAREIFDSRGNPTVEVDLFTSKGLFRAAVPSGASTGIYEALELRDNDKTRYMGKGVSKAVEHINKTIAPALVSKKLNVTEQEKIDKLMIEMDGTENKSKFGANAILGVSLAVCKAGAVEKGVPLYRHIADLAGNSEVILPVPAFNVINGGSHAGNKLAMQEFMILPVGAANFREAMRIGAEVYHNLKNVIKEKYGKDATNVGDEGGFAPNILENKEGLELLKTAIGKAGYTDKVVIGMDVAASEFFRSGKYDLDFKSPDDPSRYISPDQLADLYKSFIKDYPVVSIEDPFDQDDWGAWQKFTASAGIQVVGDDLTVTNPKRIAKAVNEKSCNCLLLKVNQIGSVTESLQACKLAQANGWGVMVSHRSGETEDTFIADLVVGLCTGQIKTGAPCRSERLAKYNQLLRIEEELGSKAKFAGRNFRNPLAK
UniProt P04406: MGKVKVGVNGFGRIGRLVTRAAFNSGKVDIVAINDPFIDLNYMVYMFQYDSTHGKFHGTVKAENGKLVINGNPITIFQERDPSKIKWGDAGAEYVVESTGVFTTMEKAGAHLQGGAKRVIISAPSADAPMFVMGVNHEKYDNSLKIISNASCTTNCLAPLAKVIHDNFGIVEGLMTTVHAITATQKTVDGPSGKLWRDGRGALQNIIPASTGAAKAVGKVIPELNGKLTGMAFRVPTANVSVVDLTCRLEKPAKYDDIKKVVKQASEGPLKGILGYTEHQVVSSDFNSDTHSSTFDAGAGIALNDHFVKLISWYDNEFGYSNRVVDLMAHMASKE
UniProt Q9Y4K0, residues 26-774: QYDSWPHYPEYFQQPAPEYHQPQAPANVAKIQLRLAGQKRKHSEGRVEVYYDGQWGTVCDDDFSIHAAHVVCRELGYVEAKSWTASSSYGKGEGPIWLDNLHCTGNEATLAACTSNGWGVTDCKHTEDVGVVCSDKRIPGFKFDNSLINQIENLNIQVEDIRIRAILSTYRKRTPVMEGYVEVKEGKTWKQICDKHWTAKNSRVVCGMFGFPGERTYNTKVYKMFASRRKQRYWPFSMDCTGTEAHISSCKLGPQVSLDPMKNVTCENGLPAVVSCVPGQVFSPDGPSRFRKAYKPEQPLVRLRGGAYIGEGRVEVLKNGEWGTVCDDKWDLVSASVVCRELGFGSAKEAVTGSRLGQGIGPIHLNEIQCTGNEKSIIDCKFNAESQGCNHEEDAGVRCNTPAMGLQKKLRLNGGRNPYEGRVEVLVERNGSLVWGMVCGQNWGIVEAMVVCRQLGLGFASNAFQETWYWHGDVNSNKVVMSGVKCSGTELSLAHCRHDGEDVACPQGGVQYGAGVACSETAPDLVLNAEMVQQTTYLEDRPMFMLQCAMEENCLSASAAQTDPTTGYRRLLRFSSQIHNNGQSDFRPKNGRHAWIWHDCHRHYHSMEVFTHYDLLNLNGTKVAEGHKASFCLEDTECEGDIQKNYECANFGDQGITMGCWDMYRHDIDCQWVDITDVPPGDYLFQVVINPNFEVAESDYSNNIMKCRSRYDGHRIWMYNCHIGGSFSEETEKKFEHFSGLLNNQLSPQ

The target in assay [3] is GAPDH-Flag (glyceraldehyde-3-phosphate dehydrogenase) (UniProt P04406). The description is as above.
For assay [4], the target named is T2, GST-aldolase A (human) (UniProt P04075).
T2 sequence: T1 sequence
Put plainly: pull-down; GST-aldolase A or GST immobilised on glutathione resins, incubated with KYSE510 whole cell lysate at 4 °C for 2 h; washed with lysis buffer pH 7.3, 137 mM NaCl, 0.1% Triton X-100; western blotting; only the target purified.

For assay [5], the target named is T3, endogenous aldolase A of KYSE510 cells (human (endogenous in KYSE510)) (UniProt P04075).
T3 sequence: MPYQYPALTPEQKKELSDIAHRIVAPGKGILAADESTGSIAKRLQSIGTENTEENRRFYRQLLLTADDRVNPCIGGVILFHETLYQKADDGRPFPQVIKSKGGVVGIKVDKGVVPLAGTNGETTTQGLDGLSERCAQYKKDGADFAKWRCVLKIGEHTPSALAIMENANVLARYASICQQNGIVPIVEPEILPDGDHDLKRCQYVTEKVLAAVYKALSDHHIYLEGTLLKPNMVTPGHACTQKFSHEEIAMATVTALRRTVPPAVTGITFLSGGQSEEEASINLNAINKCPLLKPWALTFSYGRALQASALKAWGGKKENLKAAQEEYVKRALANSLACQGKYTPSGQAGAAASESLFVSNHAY
Put plainly: proximity ligation; Duolink in situ PLA in fixed, permeabilised KYSE510 cells; rabbit anti-LOXL2, anti-L2Δ13 or anti-GAPDH with mouse anti-aldolase A; endogenous proteins.

Results are given in words; binding and its absence hold for the method and conditions named. Binding seen in cells or lysates may run through a third protein. Some binding calls cover weakened binding; strength is not graded here. For some assays here: Tags and fused reporters may be left off the sequences shown.

As for “LOXL2-HA (lysyl oxidase-like 2, full-length) (from UniProt Q9Y4K0 26-774) (enzyme)”, the binding result in assay [1], in assay [2] and in assay [3] was “binds” in each case.

Turning to “endogenous LOXL2 of KYSE510 cells (from UniProt Q9Y4K0 26-774) (enzyme)”, the binding result in assay [4] and in assay [5] was “binds” in each case.

The values are drawn from PMC9547286, “LOXL2-dependent deacetylation of aldolase A induces metabolic reprogramming and tumor progression^☆” (Redox Biology, 2022).
